Laboratory results from doi:10.1101/2022.12.26.521971.
No constants are given. Whether binding was seen depends on the method and setting. Binding seen in cells or lysates may run through a third protein. Some binding calls cover weakened binding; strength is not graded here.

Chains of the proteins cited; added tags and fusions are not shown. Lines headed by an entry give the natural chain unless they say otherwise; changes in a name come on top.
UniProt P20789: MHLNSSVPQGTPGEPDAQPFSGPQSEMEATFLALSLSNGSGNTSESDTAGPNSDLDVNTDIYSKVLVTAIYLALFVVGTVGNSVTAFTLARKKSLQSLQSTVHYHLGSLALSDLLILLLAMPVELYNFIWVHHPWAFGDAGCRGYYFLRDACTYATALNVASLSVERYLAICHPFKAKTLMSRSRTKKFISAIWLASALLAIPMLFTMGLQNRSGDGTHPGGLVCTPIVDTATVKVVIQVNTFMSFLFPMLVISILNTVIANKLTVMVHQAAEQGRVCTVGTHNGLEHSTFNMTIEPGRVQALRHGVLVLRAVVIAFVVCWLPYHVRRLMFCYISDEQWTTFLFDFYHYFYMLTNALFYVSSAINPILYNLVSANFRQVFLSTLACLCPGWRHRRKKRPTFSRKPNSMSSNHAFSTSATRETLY

Assays:
Assay in all cases: FRET or BRET
[1] = target: rat NTSR1 containing C-terminal Renilla luciferase (RLuc) (rat) (UniProt P20789)
[2] = target: constitutively active rat NTSR1 F358A with C-terminal Renilla luciferase (RLuc) (rat) (UniProt P20789)
[3] = target: human NTSR1 containing C-terminal Renilla luciferase (RLuc) (human) (UniProt P30989)

Measured: binding

Venus-tagged N-terminal β-Arrestin2 (from UniProt P32121 1-409)
binds: [1] | [2] | [3]
